Values from PubChem BioAssay AID1508597 (Cure First, 2020).
In all, the deposit lists about 2,100 reagents; this is an unselected part. 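Calls flag viability under 80% in either arm, not effects specific to rucaparib; the reference for percent is not stated.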 Reagent sequences are not shown. The record does not give: the 100% reference.

Purpose: 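Survival screen with siRNA in ovarian cancer cells derived from patients, with or without rucaparib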 (primary screen)
Cell system: human ovarian carcinoma lines grown from tumours: OCI-P5x (papillary serous) and OCI-C5x (clear cell)
Reagent: siRNA pool against human genes, 1.25 pmol siRNA per well
Duration: 72 h or 96 h, depending on the cell culture
Challenge: rucaparib 20 µM (about IC30) or vehicle, present until read-out
Measurement: 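ATP luminescence measured at 72 or 96 h according to the culture, then normalised and expressed as percent viability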
Direction: viability, normalised: higher = more viable cells remaining
Rule for the call: 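Active when normalised viability falls below 80 percent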
Meaning of the calls: active = viability under 80%; inactive = viability 80% or more

For PDE1B, rucaparib or vehicle Rucaparib, cell line OCI-C5x (clear cell), technical replicate 1 the deposit lists viability, normalised (%) = 58.3; active. For PDE1B, rucaparib or vehicle Rucaparib, cell line OCI-C5x (clear cell), technical replicate 2, the values are viability, normalised (%) = 40.5; active. PDE1B, rucaparib or vehicle Rucaparib, cell line OCI-C5x (clear cell), technical replicate 3 scored viability, normalised (%) = 56.4; active. With PDE1B, rucaparib or vehicle Rucaparib, cell line OCI-P5x (serous), technical replicate 1, the values are viability, normalised (%) = 40.2; active. PDE1B, rucaparib or vehicle Rucaparib, cell line OCI-P5x (serous), technical replicate 2 gave viability, normalised (%) = 41.5; active. PDE1B, rucaparib or vehicle Rucaparib, cell line OCI-P5x (serous), technical replicate 3 showed viability, normalised (%) = 38.5; active.

For PDE1B, rucaparib or vehicle Vehicle, cell line OCI-C5x (clear cell), technical replicate 1, the entry reads viability, normalised (%) = 54.7; active. For PDE1B, rucaparib or vehicle Vehicle, cell line OCI-C5x (clear cell), technical replicate 2, the entry reads viability, normalised (%) = 52.8; active. With PDE1B, rucaparib or vehicle Vehicle, cell line OCI-C5x (clear cell), technical replicate 3, the entry reads viability, normalised (%) = 48.6; active. PDE1B, rucaparib or vehicle Vehicle, cell line OCI-P5x (serous), technical replicate 1 gave viability, normalised (%) = 56.2; active. PDE1B, rucaparib or vehicle Vehicle, cell line OCI-P5x (serous), technical replicate 2 scored viability, normalised (%) = 63.6; active. PDE1B, rucaparib or vehicle Vehicle, cell line OCI-P5x (serous), technical replicate 3 showed viability, normalised (%) = 67.3; active.

For IGF2R, rucaparib or vehicle Rucaparib, cell line OCI-C5x (clear cell), technical replicate 1 the deposit lists viability, normalised (%) = 44.2; active. For IGF2R, rucaparib or vehicle Rucaparib, cell line OCI-C5x (clear cell), technical replicate 2 the deposit lists viability, normalised (%) = 44.3; active. With IGF2R, rucaparib or vehicle Rucaparib, cell line OCI-C5x (clear cell), technical replicate 3, the values are viability, normalised (%) = 51.3; active. For IGF2R, rucaparib or vehicle Rucaparib, cell line OCI-P5x (serous), technical replicate 1, the entry reads viability, normalised (%) = 34.7; active. IGF2R, rucaparib or vehicle Rucaparib, cell line OCI-P5x (serous), technical replicate 2 scored viability, normalised (%) = 37.8; active. IGF2R, rucaparib or vehicle Rucaparib, cell line OCI-P5x (serous), technical replicate 3 scored viability, normalised (%) = 36.2; active.

IGF2R, rucaparib or vehicle Vehicle, cell line OCI-C5x (clear cell), technical replicate 1 scored viability, normalised (%) = 77.9; active. For IGF2R, rucaparib or vehicle Vehicle, cell line OCI-C5x (clear cell), technical replicate 2 the deposit lists viability, normalised (%) = 48.1; active. IGF2R, rucaparib or vehicle Vehicle, cell line OCI-C5x (clear cell), technical replicate 3 scored viability, normalised (%) = 39.6; active. With IGF2R, rucaparib or vehicle Vehicle, cell line OCI-P5x (serous), technical replicate 1 the deposit lists viability, normalised (%) = 35.9; active. For IGF2R, rucaparib or vehicle Vehicle, cell line OCI-P5x (serous), technical replicate 2, the entry reads viability, normalised (%) = 38.4; active. With IGF2R, rucaparib or vehicle Vehicle, cell line OCI-P5x (serous), technical replicate 3, the entry reads viability, normalised (%) = 51.2; active.

With RPS19BP1, rucaparib or vehicle Rucaparib, cell line OCI-C5x (clear cell), technical replicate 1 the deposit lists viability, normalised (%) = 59.2; active. With RPS19BP1, rucaparib or vehicle Rucaparib, cell line OCI-C5x (clear cell), technical replicate 2, the entry reads viability, normalised (%) = 47.5; active. RPS19BP1, rucaparib or vehicle Rucaparib, cell line OCI-C5x (clear cell), technical replicate 3 scored viability, normalised (%) = 69.3; active. RPS19BP1, rucaparib or vehicle Rucaparib, cell line OCI-P5x (serous), technical replicate 1 scored viability, normalised (%) = 87.2; inactive. RPS19BP1, rucaparib or vehicle Rucaparib, cell line OCI-P5x (serous), technical replicate 2 showed viability, normalised (%) = 116; inactive. For RPS19BP1, rucaparib or vehicle Rucaparib, cell line OCI-P5x (serous), technical replicate 3, the entry reads viability, normalised (%) = 68.4; active.

RPS19BP1, rucaparib or vehicle Vehicle, cell line OCI-C5x (clear cell), technical replicate 1 scored viability, normalised (%) = 60.1; active. RPS19BP1, rucaparib or vehicle Vehicle, cell line OCI-C5x (clear cell), technical replicate 2 scored viability, normalised (%) = 46.8; active. RPS19BP1, rucaparib or vehicle Vehicle, cell line OCI-C5x (clear cell), technical replicate 3 gave viability, normalised (%) = 41.9; active. RPS19BP1, rucaparib or vehicle Vehicle, cell line OCI-P5x (serous), technical replicate 1 gave viability, normalised (%) = 71.3; active. RPS19BP1, rucaparib or vehicle Vehicle, cell line OCI-P5x (serous), technical replicate 2 scored viability, normalised (%) = 60.3; active. With RPS19BP1, rucaparib or vehicle Vehicle, cell line OCI-P5x (serous), technical replicate 3 the deposit lists viability, normalised (%) = 65.1; active.

DDX54, rucaparib or vehicle Rucaparib, cell line OCI-C5x (clear cell), technical replicate 1 scored viability, normalised (%) = 69.8; active. DDX54, rucaparib or vehicle Rucaparib, cell line OCI-C5x (clear cell), technical replicate 2 scored viability, normalised (%) = 47.7; active. DDX54, rucaparib or vehicle Rucaparib, cell line OCI-C5x (clear cell), technical replicate 3 gave viability, normalised (%) = 47.6; active. With DDX54, rucaparib or vehicle Rucaparib, cell line OCI-P5x (serous), technical replicate 1 the deposit lists viability, normalised (%) = 61.3; active. DDX54, rucaparib or vehicle Rucaparib, cell line OCI-P5x (serous), technical replicate 2 scored viability, normalised (%) = 64.3; active. With DDX54, rucaparib or vehicle Rucaparib, cell line OCI-P5x (serous), technical replicate 3, the values are viability, normalised (%) = 73.5; active.

DDX54, rucaparib or vehicle Vehicle, cell line OCI-C5x (clear cell), technical replicate 1 showed viability, normalised (%) = 33; active. DDX54, rucaparib or vehicle Vehicle, cell line OCI-C5x (clear cell), technical replicate 2 showed viability, normalised (%) = 30.7; active. DDX54, rucaparib or vehicle Vehicle, cell line OCI-C5x (clear cell), technical replicate 3 gave viability, normalised (%) = 32.5; active. With DDX54, rucaparib or vehicle Vehicle, cell line OCI-P5x (serous), technical replicate 1 the deposit lists viability, normalised (%) = 59.9; active. DDX54, rucaparib or vehicle Vehicle, cell line OCI-P5x (serous), technical replicate 2 scored viability, normalised (%) = 76.5; active. DDX54, rucaparib or vehicle Vehicle, cell line OCI-P5x (serous), technical replicate 3 scored viability, normalised (%) = 43.9; active.

Ordered by “viability, normalised (%)” (high to low): some entries from above.
DDX54, rucaparib or vehicle Rucaparib, cell line OCI-C5x (clear cell), technical replicate 1 | viability, normalised (%): 69.8; outcome: active
DDX54, rucaparib or vehicle Rucaparib, cell line OCI-C5x (clear cell), technical replicate 2 | viability, normalised (%): 47.7; outcome: active
DDX54, rucaparib or vehicle Rucaparib, cell line OCI-C5x (clear cell), technical replicate 3 | viability, normalised (%): 47.6; outcome: active
